This test can be described thus: qHTS Assay to Find Inhibitors of Chronic Active B-Cell Receptor Signaling. To be noted: ABC-DLBCL IkBa-CBG/CBR reporter, luminescence ratio (green luciferase fused to IkBa over red control in TMD8 lymphoma cells), 4 h. Summed up:
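Concentration-response series (up to 46 uM) were applied to TMD8 dual-reporter cells for 4 h at 37C with doxycycline. Green/red ratio, after filter-overlap correction, defined %Activity; red signal alone was normalised to basal cells and zero luminescence.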

[1] abbreviates: measured here: CBR red luminescence, cell number.
Setting [2] is: measured here: IkBa-CBG green luminescence.

This is one part of the list. The main result of the screen is listed elsewhere. These columns were measured beside it and carry no call. The list favours compounds with an active or inconclusive main result. Potencies come from curve fits of mixed quality, noted in brackets.

As a reminder, the AC50 is the concentration at which the activity in the assay is half-maximal. Regarding `O=C(CCN1CCCCC1)N/N=C/c1c[nH]c2ccccc12`, under setting [1], the AC50 is 20 µM [rising, single point].
For `CC(C#N)Sc1nc2ccccc2c(=O)n1-c1ccccc1` (configuration not stated), under setting [1], the half-maximal activity concentration (AC50) is 11.2 µM [rising, partial curve, poor fit].
As to `Cc1[nH]c2ccccc2c1/C=C(\C#N)C(=O)NCc1ccccc1`, the concentration at half-maximal activity (AC50) under setting [1] is 1.64 µM [falling, partial curve, poor fit].
Same read-out and setting: to `COc1ccc2nc(NC(=O)C3CCCN3S(=O)(=O)c3ccc(C)cc3)sc2c1` (configuration not stated) belongs 22.4 µM [falling, partial curve, poor fit]; to `O=C(O)c1ccccc1-n1cccc1C(=O)O`, 11.2 µM [falling, partial curve, poor fit].
As for `CCOC(=O)/C=C/C(=O)Nc1cc(S(=O)(=O)Nc2ccc(OC)cc2)ccc1N1CCOCC1`, the half-maximal activity concentration (AC50) under setting [1] was 7.31 µM [falling, partial curve].
On to `Cc1ccc(NC(=O)C(C)N2C(=O)C3C4CC(C(Br)C4Br)C3C2=O)cc1` (configuration not stated), for which the AC50 under setting [1] was 14.1 µM [falling, partial curve, poor fit].
Same read-out and setting: the same measure for `CSc1ccccc1NC(=O)COc1ccc(Cl)cc1`: 7.31 µM [falling, partial curve].
Same read-out and setting: to `CC(=O)N1Cc2ccccc2CC1C(=O)O` (configuration not stated) belongs 4.61 µM [falling, single point]; to `CC(/C=N/NC(=O)c1cccs1)=C\c1ccco1`, 10 µM [falling, partial curve, poor fit].
For the molecule `Clc1ccc(Cn2c(/C=C/c3ccco3)nc3ccccc32)cc1`, the concentration at half-maximal activity (AC50) runs as follows: under setting [1], 20.6 µM [falling, single point]; under setting [2], 23.1 µM [rising, partial curve, poor fit].
For the molecule `O=C(COc1ccccc1[N+](=O)[O-])N(Cc1cccc(Br)c1)C1CCS(=O)(=O)C1` (configuration not stated), the concentration at half-maximal activity (AC50) under setting [1] was 8.91 µM [falling, partial curve, poor fit].
Same read-out and setting: to `COc1ccccc1-c1cc(-c2ccc(C)cc2)nc(SCc2nnc(-c3ccccc3)o2)c1C#N` belongs 0.0731 µM [rising, full curve, poor fit]; to `CC(C)(O)C1=NOC(c2ccccc2)C1` (configuration not stated), 16.4 µM [falling, single point].
For the molecule `COc1ccc(-c2csc3ncnc(N4CCN(S(=O)(=O)c5cccs5)CC4)c23)cc1`, the concentration at half-maximal activity (AC50) under setting [1] was 8.2 µM [rising, partial curve].
The same measure, in the same setting: the same measure for `CCCC(=O)NC(c1ccccc1)c1c(O)ccc2ccccc12` (configuration not stated): 35.5 µM [falling, single point]; for `COc1ccc(NC(=O)c2cccc(N3C(=O)C4CCC(C)CC4C3=O)c2)c(OC)c1` (configuration not stated): 2.82 µM [falling, full curve].
On the same count and under the same terms, the same measure for `O=C(CC1Oc2ccccc2NC1=O)NCCCN1CCN(Cc2ccccc2)CC1` (configuration not stated): 29.1 µM [falling, single point]; for `OCCNc1ncnc2ccc(Br)cc12`: 12.6 µM [falling, partial curve, poor fit].
As to `COc1ccc(-c2cc(C(F)(F)F)nc(S(=O)(=O)CCCC(=O)Nc3cccnc3Cl)n2)cc1OC`, under setting [1], the half-maximal activity concentration (AC50) is 17.8 µM [falling, partial curve].
Same read-out and setting: to `Cc1sc2nc(CN3CCOCC3)nc(N3CCC(C(N)=O)CC3)c2c1C` belongs 17.8 µM [rising, partial curve, poor fit]; to `Cc1ccc(NC(=O)/C=C/c2ccc3c(c2)OCO3)nc1`, 1.3 µM [falling, partial curve, poor fit].
The same measure, in the same setting: to `O=c1[nH]c(C2CCN(S(=O)(=O)c3ccc(S(=O)(=O)NC4CC4)cc3)CC2)nc2c1nnn2Cc1cccc(F)c1` belongs 35.5 µM [falling, single point].
`Cc1cccc(NC(=O)c2ccccc2NC(=O)c2ccco2)c1`: under setting [1], the AC50 was 1.26 µM [falling, full curve, poor fit].
On the same count and under the same terms, the same measure for `C(=N\Nc1ccc2ccccc2n1)/c1ccc2c(c1)OCO2`: 5.01 µM [falling, partial curve]; for `N/C(=N\OC(=O)Cc1ccc(Cl)cc1)c1ccncc1`: 2.24 µM [rising, partial curve, poor fit]; for `O=C1C=C(c2ccccc2)OC2(CCCC2)O1`: 29.1 µM [rising, single point].
Same read-out and setting: the same measure for `O=P(COCCCCCOCP(=O)(c1ccccc1)c1ccccc1)(c1ccccc1)c1ccccc1`: 3.55 µM [falling, full curve]; for `Cc1c(-c2nc(-c3ccc(C(F)(F)F)cc3)no2)n(C)oc1=O`: 0.631 µM [rising, full curve, poor fit]; for `Cc1cc(NC(=O)CSc2nnc(-c3cccc(Cl)c3)o2)no1`: 17.8 µM [rising, single point].
Take `O=C(/C=C/c1ccc(OC(F)F)cc1)Nc1cccc(S(=O)(=O)N2CCOCC2)c1`: the half-maximal activity concentration (AC50) under setting [1] was 17.8 µM [falling, partial curve].
As to `COC(=O)C1=C(C)N(Cc2ccccc2)C(=O)N[C@H]1c1cccs1`, the AC50 under setting [1] is 35.5 µM [falling, single point].
On the same count and under the same terms, the same measure for `Cc1sc2ncn(CC(=O)Nc3cccc(S(N)(=O)=O)c3)c(=O)c2c1-c1ccccc1`: 35.5 µM [falling, single point].
The same measure, in the same setting: the same measure for `CC(C)(C)OC(=O)N/N=C/c1c[nH]c2ccccc12`: 6.51 µM [rising, single point]; for `CCOC(=O)c1c(-c2cccs2)csc1NC(=O)CCCC(=O)O`: 7.94 µM [falling, partial curve].
With `Cc1ccc(C(C)C)cc1S(=O)(=O)NC1CC(C)(C)NC(C)(C)C1`, the AC50 under setting [1] is 12.6 µM [falling, partial curve, poor fit].
On the same count and under the same terms, to `CCOC(=O)c1sc(NC(=O)CC2OC(=O)c3ccccc32)nc1C` (configuration not stated) belongs 13 µM [falling, partial curve]; to `COC(=O)c1sc(NC(=O)COc2c(C)cccc2C)nc1C`, 10 µM [falling, partial curve, poor fit].
On to `CCCCNS(=O)(=O)c1ccc(NC(=O)c2c(-c3ccccc3Cl)noc2C)cc1`, for which the AC50 under setting [1] is 20.6 µM [falling, single point].
Still for that read-out and setting: the same measure for `Cn1c(=O)oc2cc(S(=O)(=O)Nc3cccc(C(=O)O)c3)ccc21`: 32.6 µM [falling, single point].
Consider `C/C(=N\NC(=O)c1ccccc1OCc1ccc(F)cc1)c1ccccn1`, for which, under setting [2], the AC50 is 16.4 µM [falling, single point].
